# Library screen at single concentrations

Amino acid sequences for entries named in this document (tags omitted). Residues count along the entry.
UniProt I6X8D2, whole entry: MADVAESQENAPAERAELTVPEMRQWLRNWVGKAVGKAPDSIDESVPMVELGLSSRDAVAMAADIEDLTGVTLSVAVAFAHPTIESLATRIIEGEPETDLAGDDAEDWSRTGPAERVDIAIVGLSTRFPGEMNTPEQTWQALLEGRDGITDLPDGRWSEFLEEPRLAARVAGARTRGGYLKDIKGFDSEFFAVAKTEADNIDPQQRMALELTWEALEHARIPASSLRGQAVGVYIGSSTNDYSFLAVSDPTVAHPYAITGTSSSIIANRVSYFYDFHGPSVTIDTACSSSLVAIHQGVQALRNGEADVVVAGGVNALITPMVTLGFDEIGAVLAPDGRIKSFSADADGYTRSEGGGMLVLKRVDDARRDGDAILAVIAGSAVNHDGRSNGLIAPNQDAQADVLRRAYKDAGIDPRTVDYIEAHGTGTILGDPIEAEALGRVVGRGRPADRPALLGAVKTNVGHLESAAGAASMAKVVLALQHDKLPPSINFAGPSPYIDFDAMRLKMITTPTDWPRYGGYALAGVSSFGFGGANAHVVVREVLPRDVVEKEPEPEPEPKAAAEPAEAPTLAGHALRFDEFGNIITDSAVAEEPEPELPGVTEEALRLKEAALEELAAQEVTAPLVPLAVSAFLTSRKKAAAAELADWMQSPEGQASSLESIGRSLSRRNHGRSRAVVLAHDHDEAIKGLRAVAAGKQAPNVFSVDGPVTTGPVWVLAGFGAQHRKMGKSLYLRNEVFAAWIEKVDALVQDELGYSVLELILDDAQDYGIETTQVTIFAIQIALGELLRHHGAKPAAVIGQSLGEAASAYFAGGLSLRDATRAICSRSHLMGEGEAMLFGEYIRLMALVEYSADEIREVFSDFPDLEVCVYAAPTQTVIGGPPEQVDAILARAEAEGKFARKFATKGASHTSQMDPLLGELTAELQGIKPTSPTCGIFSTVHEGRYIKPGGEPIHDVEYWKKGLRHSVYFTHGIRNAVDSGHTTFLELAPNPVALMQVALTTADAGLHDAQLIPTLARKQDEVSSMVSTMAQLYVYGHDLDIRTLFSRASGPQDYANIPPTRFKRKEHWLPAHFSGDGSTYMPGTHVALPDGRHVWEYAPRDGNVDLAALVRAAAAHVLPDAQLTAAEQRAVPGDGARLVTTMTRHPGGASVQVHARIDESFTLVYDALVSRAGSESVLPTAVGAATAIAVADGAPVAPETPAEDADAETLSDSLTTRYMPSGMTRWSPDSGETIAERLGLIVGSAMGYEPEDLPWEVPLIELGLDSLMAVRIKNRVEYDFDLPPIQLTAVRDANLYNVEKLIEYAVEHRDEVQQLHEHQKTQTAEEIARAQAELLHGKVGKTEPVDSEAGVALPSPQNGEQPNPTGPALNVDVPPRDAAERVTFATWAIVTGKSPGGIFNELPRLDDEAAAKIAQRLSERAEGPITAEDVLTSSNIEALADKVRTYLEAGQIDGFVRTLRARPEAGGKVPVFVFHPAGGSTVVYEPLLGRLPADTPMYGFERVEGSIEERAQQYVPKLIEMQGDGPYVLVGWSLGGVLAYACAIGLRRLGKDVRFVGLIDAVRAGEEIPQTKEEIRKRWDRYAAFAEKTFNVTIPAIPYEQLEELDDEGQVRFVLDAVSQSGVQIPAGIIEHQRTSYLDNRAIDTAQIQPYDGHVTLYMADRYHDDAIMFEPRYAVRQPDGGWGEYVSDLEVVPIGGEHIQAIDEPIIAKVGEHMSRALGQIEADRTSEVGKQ
UniProt Q8IDJ8, 1-583: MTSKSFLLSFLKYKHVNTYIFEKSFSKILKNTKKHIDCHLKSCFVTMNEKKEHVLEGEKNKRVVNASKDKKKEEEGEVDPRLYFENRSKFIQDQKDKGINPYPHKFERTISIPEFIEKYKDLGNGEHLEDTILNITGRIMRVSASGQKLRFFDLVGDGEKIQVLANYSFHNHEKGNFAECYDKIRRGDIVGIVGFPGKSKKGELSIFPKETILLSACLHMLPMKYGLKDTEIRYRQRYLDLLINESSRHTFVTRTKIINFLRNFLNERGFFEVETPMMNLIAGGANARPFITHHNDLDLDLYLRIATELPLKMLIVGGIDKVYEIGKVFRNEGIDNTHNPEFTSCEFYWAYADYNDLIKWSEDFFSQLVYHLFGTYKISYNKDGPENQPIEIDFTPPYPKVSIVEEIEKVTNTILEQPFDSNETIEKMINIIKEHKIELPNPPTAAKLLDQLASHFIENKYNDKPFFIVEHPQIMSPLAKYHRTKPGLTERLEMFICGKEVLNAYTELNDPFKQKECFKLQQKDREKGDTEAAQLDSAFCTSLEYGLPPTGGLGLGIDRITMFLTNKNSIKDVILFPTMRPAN
UniProt A4I591, 1-473: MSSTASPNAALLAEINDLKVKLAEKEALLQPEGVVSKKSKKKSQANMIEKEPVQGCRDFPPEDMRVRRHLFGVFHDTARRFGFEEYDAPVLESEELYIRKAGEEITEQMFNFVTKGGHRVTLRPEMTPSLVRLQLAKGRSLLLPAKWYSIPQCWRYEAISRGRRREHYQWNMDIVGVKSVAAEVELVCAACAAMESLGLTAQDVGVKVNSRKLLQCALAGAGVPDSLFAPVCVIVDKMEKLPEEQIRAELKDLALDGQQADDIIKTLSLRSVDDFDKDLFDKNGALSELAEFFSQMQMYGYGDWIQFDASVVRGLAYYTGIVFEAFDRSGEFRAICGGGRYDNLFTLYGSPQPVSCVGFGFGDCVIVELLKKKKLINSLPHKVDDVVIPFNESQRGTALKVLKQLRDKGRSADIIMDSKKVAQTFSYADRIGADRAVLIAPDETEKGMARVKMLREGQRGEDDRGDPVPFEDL
UniProt Q4DA54, 1-478: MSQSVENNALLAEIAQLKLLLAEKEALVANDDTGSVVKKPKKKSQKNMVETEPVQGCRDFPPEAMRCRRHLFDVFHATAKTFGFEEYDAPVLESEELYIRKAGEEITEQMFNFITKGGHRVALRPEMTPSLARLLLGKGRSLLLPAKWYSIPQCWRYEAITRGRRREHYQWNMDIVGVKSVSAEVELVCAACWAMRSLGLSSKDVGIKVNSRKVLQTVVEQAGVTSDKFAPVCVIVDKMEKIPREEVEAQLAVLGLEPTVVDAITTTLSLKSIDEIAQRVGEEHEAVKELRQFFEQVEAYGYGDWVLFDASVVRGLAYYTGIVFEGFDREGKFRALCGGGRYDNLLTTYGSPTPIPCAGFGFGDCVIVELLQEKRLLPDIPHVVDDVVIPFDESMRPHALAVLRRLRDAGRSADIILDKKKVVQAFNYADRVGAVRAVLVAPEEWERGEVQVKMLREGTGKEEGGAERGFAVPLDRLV

From ChEMBL document CHEMBL3988442, “University of Dundee, Small-Polar-MMV Screening Library” (2021).

Pks13 thioesterase: 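Polyketide synthase Pks13, Mycobacterium tuberculosis (UniProt I6X8D2). Enzyme assay of the thioesterase domain of polyketide synthase 13; the read-out is not stated. Tested at 30 µM. The record gives no direction; the compounds picked for IC50 retests had high values, so higher reads as stronger inhibition. Size under these conditions: about 67,000 compounds, about 300 of them at 50% or above in at least one test.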
PfKRS1: 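Lysine-tRNA ligase, Plasmodium falciparum 3D7 (UniProt Q8IDJ8). Enzyme assay of the cytosolic lysyl-tRNA synthetase in 384-well plates, read by luminescence. Tested at 30 µM. Direction is inferred from only a few compounds that gave an IC50; most scored high, so higher reads as stronger inhibition. About 69,000 compounds were tested under these conditions; 0.071% (about 49) showed 50% or more at least once.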
LiHisRS: 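Histidine-tRNA ligase, Leishmania infantum (UniProt A4I591). Enzyme assay of histidyl-tRNA synthetase; the read-out is not stated. Concentration: 30 µM. Higher reads as stronger inhibition (inferred: compounds with an IC50 in retests scored well above the rest). The assay is labelled LdHisRS but filed under L. infantum. Of about 69,000 compounds tested this way, about 410 (0.6%) reached 50% or more in at least one test.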
TcHisRS: 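Enzyme assay of histidyl-tRNA synthetase; the read-out is not stated. Target: Histidine-tRNA ligase, Trypanosoma cruzi CL Brener (UniProt Q4DA54). Tested at 30 µM. Higher reads as stronger inhibition (inferred: compounds with an IC50 in retests scored well above the rest). About 69,000 compounds were tested under these conditions; 0.045% (about 31) showed 50% or more at least once.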

Results are given as percent effect.
The controls that fix the scale are not given in the record; negative values are as filed.
Compounds were drawn at random from those tested, without regard to their results.
A dash means the value is not listed here; it may have been measured.

| # | SMILES | Pks13 thioesterase | PfKRS1 | LiHisRS | TcHisRS |
|---|---|---|---|---|---|
| 1 | `CCOCC1CN(c2ncccn2)Cc2cnn(CC3CCOCC3)c21` (stereo unspecified) | -2.484% | -6.822% | 0% | 14.05% |
| 2 | `CO[C@H]1CCN(C2CCC2)[C@@H]2CN(Cc3ccncc3)C[C@H]12` | -5.045% | 3% | -235% | 5.882% |
| 3 | `COc1ccc(OCCNC(=O)N2CCS(=O)(=O)CC2)cc1` | -14.07% | 1.827% | 8.333% | 5.572% |
| 4 | `O=C(c1cccnc1O)N1CCOC(c2ccc(Cl)cc2)C1` (stereo unspecified) | -27.52% | 8.354% | 20% | 5.155% |
| 5 | `CC(C)CN1CC[C@@H]2[C@@H]1CCN2C(=O)N(C)C` | -18.33% | 3.051% | 7.018% | 5.376% |
| 6 | `c1cncc(NCCNC2CCSCC2)c1` | -14.36% | 3.316% | 8.571% | 9.278% |
| 7 | `CCN(CC)C(=O)CSc1nc2cc(C)nc-2c(O)n1CC` | 3.327% | 2.833% | 3.704% | -0.4464% |
| 8 | `CCc1nc(C2CCCN2Cc2nc(CCOC)no2)no1` (stereo unspecified) | -17.63% | 0.1094% | 10.38% | 0% |
| 9 | `CCC1CCCN(C(=O)NCc2cccnc2-n2cccn2)C1` (stereo unspecified) | -21.83% | 1.63% | 5.172% | 5.085% |
| 10 | `CC(C)Cc1cc(C(=O)NCC2CCN(c3ccccc3F)C2)on1` (stereo unspecified) | 13.81% | -0.1101% | 15% | 7.792% |
| 11 | `Nc1cccc(-c2cccc3ccnn23)n1` | 15.31% | 3.592% | 15.56% | 4.762% |
| 12 | `CNC(=O)CN1CCc2c(CNc3nccs3)n[nH]c2C1` | 1.543% | 0.4964% | -17.95% | 3.659% |
| 13 | `CNc1cc(C)nc(C2COCCN2CCc2ccccc2)n1` (stereo unspecified) | 13.14% | -2.02% | 15.94% | 9.091% |
| 14 | `CSCc1nc(CNC(=O)c2cnn(C(C)C)c2)cs1` | -17.09% | 0.01219% | 11.11% | 5.806% |
| 15 | `Cc1nc(CN(CCS(C)(=O)=O)C(C)C)no1` | -21.1% | 0.2898% | 11.39% | 3.017% |
| 16 | `COCc1nnc(NC(=O)c2cn(C(C)C)c3ccc(OC)cc23)s1` | -22.24% | 1.208% | 35.42% | 11.46% |
| 17 | `Cc1n[nH]c(C2CN(C(=O)CCc3cscn3)CCO2)n1` (stereo unspecified) | -17.4% | 2.188% | 16.51% | 6.471% |
| 18 | `COc1ccc(C(=O)N(CCC#N)Cc2ccccn2)cc1` | -3.676% | -1.167% | 4.464% | 3.333% |
| 19 | `O=C(c1ccc(N2CCCC2)nn1)N1CCc2ccccc21` | -17.05% | 5.398% | 12.17% | 4.124% |
| 20 | `Cc1cccc(C(=O)N2C[C@@H]3COC[C@@H](CC(=O)N4CCCC4)[C@@H]3C2)n1` | -4.864% | 5.748% | 22.34% | 10.05% |
| 21 | `Cc1csc2c(=O)n3c(nc12)CCN(C(=O)c1cccnc1)CC3` | -44.78% | -0.7119% | 8.333% | 3.784% |
| 22 | `CC(=O)NCCCNC(=O)Nc1ccccc1-n1nc(C)cc1C` | -34.13% | 7.598% | 16.07% | 6.14% |
| 23 | `Cc1nccn1CCNC(=O)C1(C)CC(c2ccccc2)=NO1` (stereo unspecified) | 6.254% | 2.203% | 8.511% | 7.752% |
| 24 | `CCS(=O)(=O)c1ccc(NCc2csc(C(C)C)n2)cc1` | 6.367% | -0.09016% | 16.44% | 3.158% |
| 25 | `CCN(C(=O)CN1CCCC1c1ccc(OC)cc1)c1ccccc1C` (stereo unspecified) | - | -0.3309% | 26.67% | 10.71% |
| 26 | `O=C(O)c1ccccc1-c1ccc(CN2CCCC(O)C2)cc1` (stereo unspecified) | 1.678% | 6.772% | 8.571% | 2.26% |
| 27 | `CCN1CCN(C(=O)NC(C)c2noc(-c3ccccc3)n2)CC1` (stereo unspecified) | - | 4.237% | 5.263% | 3.911% |
| 28 | `COC[C@@]12CCC[C@@H]1CN(C(=O)Cc1ccco1)C2` | -17.99% | 9.698% | -56% | 9.278% |
| 29 | `O=C(Nc1ccc(F)cc1)C1CNCCN1C(=O)CCc1cccnc1` (stereo unspecified) | 6.819% | 4.993% | 10% | 7.229% |
| 30 | `CCN(CC)C(=O)C1CCN(C(=O)Nc2cccnc2OC)CC1` | -14.46% | 3.226% | -3.306% | 5.102% |
| 31 | `Cc1cccc(CN2CC[C@H]3[C@H]2CCN3C(=O)c2cnn(C)c2)n1` | 3.273% | 2.93% | 7.563% | 6.863% |
| 32 | `CC(C)c1nc(CN(C)C(=O)CCc2ccc3c(c2)OCO3)cs1` | 4.23% | 6.067% | 16.39% | 7.2% |
| 33 | `CC(=O)NC[C@H]1OC[C@@H](NC2CCC(F)(F)CC2)[C@@H]1O` | -30.14% | 2.623% | 6.757% | 2.174% |
| 34 | `CC(NC(=O)Nc1ccc(N2CCCC2)nc1)c1nncn1C` (stereo unspecified) | 15.16% | -1.207% | 13.16% | 8.43% |
| 35 | `Cn1nnnc1SCCNC(=O)c1cccc2ccnn12` | 6.711% | 0.404% | 17.95% | 5.747% |
| 36 | `O=C1CC2(CCCCC2)C(=O)N1CC(O)COCc1ccccc1F` (stereo unspecified) | -27.09% | 4.032% | 18.18% | -1.058% |
| 37 | `CN1CC2(CCN(C(=O)c3cccnc3)CC2)c2cccc(F)c21` | 5.301% | 3.445% | 11.32% | -2.222% |
| 38 | `OC1(CN2CCCCC2)CCN(Cc2c[nH]c(CC3CCCC3)n2)C1` (stereo unspecified) | -58.14% | 2.061% | 31.43% | 6.494% |
| 39 | `CC(C)NC(=O)C1c2c(ncn2C(C)C)CCN1Cc1ccccc1` (stereo unspecified) | -12.27% | 3.005% | 11.43% | 4.902% |
| 40 | `N#CCCN(CC1CCOC1)Cn1ccc(-c2ccccc2)n1` (stereo unspecified) | -25.14% | 8.877% | 11.43% | 8.247% |
| 41 | `N#CCSCCCN1CCCC(C(=O)N2CCCCCC2)C1` (stereo unspecified) | -5.705% | 3.575% | 1.333% | 6.358% |
| 42 | `CCOC(=O)C1CSCCN1C(=O)c1ccc(-n2nc(C)cc2C)cc1` (stereo unspecified) | 23.62% | 2.19% | 0% | 3.704% |
| 43 | `Cc1nc[nH]c1CN1CCN(C(=O)C2(C)CC2)[C@H]2CS(=O)(=O)C[C@H]21` | -12.25% | 0.5208% | 12.99% | -2.424% |
| 44 | `CNC(=O)[C@@H]1C[C@H]2CN(C(=O)c3ccccn3)C[C@H]2N1C(C)C` | -18.68% | -6.72% | 8.772% | -5.376% |
| 45 | `Cc1cccc(-c2nc3cc(S(=O)(=O)N4CCCC4)ccc3n2C)n1` | 20.33% | -5.166% | 3.614% | -4.878% |
| 46 | `Cc1cccc(C(C)NCC2CCS(=O)(=O)CC2)c1` (stereo unspecified) | -5.583% | 5.645% | 0% | 2.062% |
| 47 | `O=C(c1cc(-c2cccs2)on1)N1CCCCC1Cn1cccn1` (stereo unspecified) | -11.95% | 0.9387% | 13.39% | 2.89% |
| 48 | `COc1ccc(C(=O)N2CCCCC2c2nccs2)c(OC)c1` (stereo unspecified) | 3.743% | 0.5999% | 9.649% | 3.198% |
| 49 | `Cc1cc(CN2CC[C@H]3[C@H]2CCN3CC(=O)N(C)C)oc1C` | -33.13% | 1.537% | 17.48% | 9.709% |
| 50 | `CCS(=O)(=O)N1CCCC(c2nc3ccccc3n2C(C)C)C1` (stereo unspecified) | -23.45% | 2.681% | 18.18% | -1.087% |

Some entries from above, unchanged:

| SMILES | Pks13 thioesterase | PfKRS1 | LiHisRS | TcHisRS |
|---|---|---|---|---|
| `COc1ccc(C(=O)N2CCCCC2c2nccs2)c(OC)c1` (stereo unspecified) | 3.743% | 0.5999% | 9.649% | 3.198% |
| `Cc1nc(CN(CCS(C)(=O)=O)C(C)C)no1` | -21.1% | 0.2898% | 11.39% | 3.017% |
| `Cc1cc(CN2CC[C@H]3[C@H]2CCN3CC(=O)N(C)C)oc1C` | -33.13% | 1.537% | 17.48% | 9.709% |
| `Cc1n[nH]c(C2CN(C(=O)CCc3cscn3)CCO2)n1` (stereo unspecified) | -17.4% | 2.188% | 16.51% | 6.471% |
| `O=C1CC2(CCCCC2)C(=O)N1CC(O)COCc1ccccc1F` (stereo unspecified) | -27.09% | 4.032% | 18.18% | -1.058% |